# Experimental data: PubChem BioAssay AID1508597 (Cure First, 2020)
# Screen: 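Survival screen with siRNA in ovarian cancer cells derived from patients, with or without rucaparib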 (primary screen)
# System: human ovarian carcinoma lines grown from tumours: OCI-P5x (papillary serous) and OCI-C5x (clear cell)
# Reagents: siRNA pool against human genes, 1.25 pmol siRNA per well
# Time to read-out: 72 h or 96 h, depending on the cell culture
# Treatment: rucaparib 20 µM (about IC30) or vehicle, present until read-out
# Rucaparib or vehicle: Rucaparib
# Cell line: OCI-P5x (serous)
# Detection: 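ATP luminescence measured at 72 or 96 h according to the culture, then normalised and expressed as percent viability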
# Scale: viability, normalised: higher = more viable cells remaining
# Hit rule: 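Active when normalised viability falls below 80 percent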
# Calls: active = viability under 80%; inactive = viability 80% or more
# This is an unselected part of the about 2,100 reagents, under one of the conditions tested. 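Calls flag viability under 80% in either arm, not effects specific to rucaparib; the reference for percent is not stated.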 A number with no mark means an inactive call. A reagent listed more than once was tested more than once; the source does not tell the runs apart. Not given: the 100% reference.
Gene,technical replicate,"viability, normalised (%)"
IPMK,1,77.6 (active)
IPMK,2,63.8 (active)
IPMK,3,76.7 (active)
ATAD2,1,51.3 (active)
ATAD2,2,66.1 (active)
ATAD2,3,73.2 (active)
MSH6,1,67.4 (active)
MSH6,1,89.5
MSH6,2,64.2 (active)
MSH6,2,92.9
MSH6,3,101
MSH6,3,75 (active)
PRMT2,1,53.2 (active)
PRMT2,2,52.3 (active)
PRMT2,3,48.2 (active)
SKP1,1,93.3
SKP1,2,119
SKP1,3,92
RPS6KA6,1,112
RPS6KA6,2,96.3
RPS6KA6,3,82.1
EPHB2,1,94
EPHB2,2,80.1
EPHB2,3,97.1
BID,1,51.1 (active)
BID,2,63.8 (active)
BID,3,60.1 (active)
GPX4,1,49.5 (active)
GPX4,2,42.1 (active)
GPX4,3,61 (active)

Part of the list above, set out differently.
SKP1, technical replicate 1
- viability, normalised (%): 93.3

SKP1, technical replicate 2
- viability, normalised (%): 119

SKP1, technical replicate 3
- viability, normalised (%): 92

Next records follow:
Gene,technical replicate,"viability, normalised (%)"
POLM,1,109
POLM,2,91.5
POLM,3,87.7
CLU,1,67 (active)
CLU,2,80.4
CLU,3,61.1 (active)
CSNK1D,1,128
CSNK1D,1,49.7 (active)
CSNK1D,2,49 (active)
CSNK1D,2,136
CSNK1D,3,42.8 (active)
CSNK1D,3,137
BTK,1,83
BTK,1,74.5 (active)
BTK,2,76.6 (active)
BTK,2,67.2 (active)
BTK,3,70.7 (active)
BTK,3,70.5 (active)
CFAP46,1,67.7 (active)
CFAP46,2,89.4
CFAP46,3,83.9
PDE6D,1,73 (active)
PDE6D,2,80.7
PDE6D,3,69.9 (active)
PRKX,1,119
PRKX,2,117
PRKX,3,98
